Measured values as given in PubChem BioAssay AID1487 (National Center for Advancing Translational Sciences (NCATS), 2009).
Values joined by “and” are separate entries in the source; they are usually repeats but may differ in a detail not shown here. Equal values may be shown once. The list shows a part of the results. These are further read-outs of the screen, such as a control signal, another cell line or another target. No call is given for them. The list favours compounds with an active or inconclusive main result. Words in brackets tell the shape of the fitted curve; partial curves, single points and poor fits give uncertain potencies.

Assay: qHTS Assay for Modulators of Lamin A Splicing
Settings: HeLa LMNA splicing GFP/RFP minigene ratio, 48 h
Outline: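 S3 HeLa stable clones carrying a lamin A-EGFP splicing minigene plus DsRed2 were seeded at 600 cells/well in Opti-MEM with 2% FBS, pin-dosed and incubated 48 h at 37°C. Acumen cytometry (488 nm) gave the GFP/RFP total-intensity ratio.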

[1] = measured here: GFP splicing reporter channel
[2] = measured here: RFP viability control channel

Row | Structure (SMILES) | AC50 [1] | AC50 [2]
1 | CCOC(=O)c1c(-c2cccc(C)c2)csc1NC(=O)C1CC=CCC1C(=O)O (stereo not given) | 15.8 µM [rising, single point] | 12.6 µM [rising, single point]
2 | COc1cc(C2C3=C(Nc4ncnn42)c2ccccc2CC3)cc(OC)c1OC (stereo not given) | 2.51 µM [rising, full curve, poor fit] | –
3 | COc1ccc(NC(=O)c2sccc2-n2cccc2)cc1 | 25.1 µM [falling, single point] | –
4 | C=CCn1c(COc2ccccc2)nnc1SC(C)C(=O)N/N=C/c1cc(Cl)ccc1O (stereo not given) | – | 17.8 µM [rising, single point]
5 | Cc1cc(C(=O)N[C@H](c2ccccc2)[C@@]2(C)C[C@@H]2[C@@H](C)C(=O)Nc2ccc3ccccc3c2)n(C)n1 | – | 14.1 µM [rising, single point]
6 | O=C(O)[C@@H]1C[C@H](C(=O)O)N1 | 0.794 µM [falling, full curve, poor fit] | 12.6 µM [falling, partial curve, poor fit]
7 | COc1ccc(-c2cc(OC)c3ccccc3n2)cc1 | 4.47 µM [rising, partial curve, poor fit] | 10 µM [rising, partial curve]
8 | CCC(C)N1C(=O)S/C(=C/c2ccc(N3CCOCC3)cc2C)C1=O (stereo not given) | 12.6 µM [rising, single point] | 15.8 µM [rising, single point]
9 | Cc1nc(-c2cccc(S(=O)(=O)N3CC(C)OC(C)C3)c2)cs1 (stereo not given) | 0.0794 µM [rising, single point] | 0.0891 µM [rising, single point]
10 | O=C(CSc1ccccc1)NCc1ccc2c(c1)CCN2C(=O)c1ccc(F)cc1 | 3.98 µM [rising, full curve] | 8.91 µM [rising, partial curve]
11 | CC(C)(C)n1cnc(C(N)=O)c1N | – | 1 µM [falling, partial curve]
12 | CC(C)=CCN1CCN(Cc2c(C)nn(C)c2Cl)CC1CCO (stereo not given) | 35.5 µM [rising, single point] | –
13 | N=c1c2c3c(sc2ncn1N)CCCCC3 | – | 35.5 µM [rising, single point]
14 | CCc1ccc(CNC(=O)CCCN2C(=O)c3cccnc3Oc3ccc(Cl)cc32)cc1 | – | 0.01 µM [rising, full curve, poor fit]
15 | O=C(COc1ccccc1)Nc1nnc(S(=O)(=O)N2CCCCCC2)s1 | – | 0.0398 µM [falling, full curve, poor fit]
16 | COc1ccc(C(O)C(CN2CCOCC2)c2ccccc2)cc1F (stereo not given) | – | 0.0794 µM [falling, full curve, poor fit]
17 | COc1ccc(OCCCC(=O)Nc2cccc(C(C)=O)c2)cc1 | 22.4 µM [rising, partial curve, poor fit] | 22.4 µM [rising, partial curve, poor fit]
18 | CCOC(=O)C1=C(c2ccccc2)N=c2s/c(=C\c3cccc(O)c3)c(=O)n2C1c1cccs1 (stereo not given) | 35.5 µM [falling, single point] | 8.91 µM [falling, partial curve]

Row | Structure (SMILES) | AC50 [1] | AC50 [2]
19 | Cc1nn(-c2ccccc2)c(C)c1/C=N/Nc1nc2ccccc2[nH]1 | – | 14.1 µM [rising, partial curve]
20 | COCCCNC(=S)Nc1ccc(C)cc1[N+](=O)[O-] | 1.12 µM [rising, full curve, poor fit] | 0.0141 µM [rising, full curve, poor fit]
21 | Cc1ccc(Cc2nc3ccccc3nc2SCC(=O)Nc2cccc(C(F)(F)F)c2)cc1 | 35.5 µM [falling, single point] | 35.5 µM [falling, single point]
22 | CC(C)CN1C(=O)c2ccc(C(=O)Nc3ccncc3)cc2C1=O | 14.1 µM [rising, partial curve, poor fit] | 15.8 µM [rising, partial curve]
23 | COc1ccc(Cl)cc1Nc1nc(-c2sc(NC(=O)c3ccccc3)nc2C)cs1 | – | 3.16 µM [falling, full curve]
24 | COc1ccccc1C(=O)N1CCN(c2nc3cc(C)c(C)cc3cc2C#N)CC1 | 14.1 µM [rising, single point] | 20 µM [rising, single point]
25 | COc1ccccc1N1CCN(/N=C/c2cccc(OC)c2OC)CC1 | 0.0316 µM [falling, full curve, poor fit] | –
26 | Cc1cccc(Nc2nc(N)c([N+](=O)[O-])c(N3CC(C)CC(C)C3)n2)c1 (stereo not given) | 35.5 µM [falling, single point] | –
27 | O=C(Nc1ccc(N2CCCCC2)c(Cl)c1)c1ncn[nH]1 | – | 1.41 µM [falling, partial curve]
28 | CCOc1ccc(S(=O)(=O)N(CC(=O)N/N=C/c2cccs2)c2ccc(C)cc2)cc1 | – | 0.282 µM [rising, full curve, poor fit]
29 | CC(C)C(c1nnnn1Cc1ccc(F)cc1)N1CCN(C2CCCCC2)CC1 (stereo not given) | – | 0.0355 µM [falling, full curve, poor fit]
30 | CN1CCN(Cc2c(C#N)c3ccccc3n2C)CC1 | 5.01 µM [rising, partial curve] | 0.126 µM [rising, full curve, poor fit]
31 | CC(C)(C)c1ccc(S(=O)(=O)NCc2nc3cccnc3n2Cc2ccccc2Cl)cc1 | 2.82 µM [falling, partial curve, poor fit] | –
32 | COc1ccccc1Nc1ccc(S(=O)(=O)N2CCCCC2)cc1[N+](=O)[O-] | – | 12.6 µM [rising, partial curve]
33 | O=C(CC1NCCc2ccccc21)Nc1ccccc1Cl (stereo not given) | 35.5 µM [falling, single point] | –
34 | O=C(N/N=C/c1c[nH]c2ccc(Br)cc12)c1ccn(Cc2ccc(Cl)cc2)n1 | 12.6 µM [falling, single point] | 15.8 µM [falling, single point]
35 | COC(=O)C1=CO[C@@H](C)[C@H]2CN3CCc4c([nH]c5ccccc45)[C@@H]3C[C@H]12 | 3.16 µM [falling, single point] and 50.1 nM [falling, full curve] | 7.08 nM [rising, full curve, poor fit] and 70.8 nM [falling, full curve, poor fit]

Compounds above that have a cyano group:
Row | Structure (SMILES) | AC50 [1] | AC50 [2]
24 | COc1ccccc1C(=O)N1CCN(c2nc3cc(C)c(C)cc3cc2C#N)CC1 | 14.1 µM [rising, single point] | 20 µM [rising, single point]
30 | CN1CCN(Cc2c(C#N)c3ccccc3n2C)CC1 | 5.01 µM [rising, partial curve] | 0.126 µM [rising, full curve, poor fit]
